Experimental data from the supplement of paper PMC12067093, “Discovery and optimisation of a covalent ligand for TRIM25 and its application to targeted protein ubiquitination” (Chemical Science, 2025).
The list shows a part of the results.

Chains of the proteins cited; added tags and fusions are not shown. Lines headed by an entry give the natural chain unless they say otherwise; changes in a name come on top.
UniProt Q96FV9: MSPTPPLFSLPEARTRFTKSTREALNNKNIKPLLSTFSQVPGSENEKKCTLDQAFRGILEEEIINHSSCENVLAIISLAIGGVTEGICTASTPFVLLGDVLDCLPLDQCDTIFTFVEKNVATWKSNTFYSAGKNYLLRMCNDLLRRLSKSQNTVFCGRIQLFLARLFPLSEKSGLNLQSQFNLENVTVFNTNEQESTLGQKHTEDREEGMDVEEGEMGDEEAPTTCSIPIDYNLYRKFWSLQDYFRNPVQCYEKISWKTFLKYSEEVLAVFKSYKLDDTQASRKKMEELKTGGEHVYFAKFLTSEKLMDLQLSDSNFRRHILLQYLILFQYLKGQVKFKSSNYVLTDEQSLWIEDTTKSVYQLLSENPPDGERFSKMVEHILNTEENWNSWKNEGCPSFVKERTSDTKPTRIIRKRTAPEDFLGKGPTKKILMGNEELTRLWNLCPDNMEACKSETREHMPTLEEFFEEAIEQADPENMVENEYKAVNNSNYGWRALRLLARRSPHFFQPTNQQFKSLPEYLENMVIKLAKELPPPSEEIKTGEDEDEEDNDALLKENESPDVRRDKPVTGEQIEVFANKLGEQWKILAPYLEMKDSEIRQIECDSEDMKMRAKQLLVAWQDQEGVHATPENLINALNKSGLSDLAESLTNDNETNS
UniProt Q9Y490: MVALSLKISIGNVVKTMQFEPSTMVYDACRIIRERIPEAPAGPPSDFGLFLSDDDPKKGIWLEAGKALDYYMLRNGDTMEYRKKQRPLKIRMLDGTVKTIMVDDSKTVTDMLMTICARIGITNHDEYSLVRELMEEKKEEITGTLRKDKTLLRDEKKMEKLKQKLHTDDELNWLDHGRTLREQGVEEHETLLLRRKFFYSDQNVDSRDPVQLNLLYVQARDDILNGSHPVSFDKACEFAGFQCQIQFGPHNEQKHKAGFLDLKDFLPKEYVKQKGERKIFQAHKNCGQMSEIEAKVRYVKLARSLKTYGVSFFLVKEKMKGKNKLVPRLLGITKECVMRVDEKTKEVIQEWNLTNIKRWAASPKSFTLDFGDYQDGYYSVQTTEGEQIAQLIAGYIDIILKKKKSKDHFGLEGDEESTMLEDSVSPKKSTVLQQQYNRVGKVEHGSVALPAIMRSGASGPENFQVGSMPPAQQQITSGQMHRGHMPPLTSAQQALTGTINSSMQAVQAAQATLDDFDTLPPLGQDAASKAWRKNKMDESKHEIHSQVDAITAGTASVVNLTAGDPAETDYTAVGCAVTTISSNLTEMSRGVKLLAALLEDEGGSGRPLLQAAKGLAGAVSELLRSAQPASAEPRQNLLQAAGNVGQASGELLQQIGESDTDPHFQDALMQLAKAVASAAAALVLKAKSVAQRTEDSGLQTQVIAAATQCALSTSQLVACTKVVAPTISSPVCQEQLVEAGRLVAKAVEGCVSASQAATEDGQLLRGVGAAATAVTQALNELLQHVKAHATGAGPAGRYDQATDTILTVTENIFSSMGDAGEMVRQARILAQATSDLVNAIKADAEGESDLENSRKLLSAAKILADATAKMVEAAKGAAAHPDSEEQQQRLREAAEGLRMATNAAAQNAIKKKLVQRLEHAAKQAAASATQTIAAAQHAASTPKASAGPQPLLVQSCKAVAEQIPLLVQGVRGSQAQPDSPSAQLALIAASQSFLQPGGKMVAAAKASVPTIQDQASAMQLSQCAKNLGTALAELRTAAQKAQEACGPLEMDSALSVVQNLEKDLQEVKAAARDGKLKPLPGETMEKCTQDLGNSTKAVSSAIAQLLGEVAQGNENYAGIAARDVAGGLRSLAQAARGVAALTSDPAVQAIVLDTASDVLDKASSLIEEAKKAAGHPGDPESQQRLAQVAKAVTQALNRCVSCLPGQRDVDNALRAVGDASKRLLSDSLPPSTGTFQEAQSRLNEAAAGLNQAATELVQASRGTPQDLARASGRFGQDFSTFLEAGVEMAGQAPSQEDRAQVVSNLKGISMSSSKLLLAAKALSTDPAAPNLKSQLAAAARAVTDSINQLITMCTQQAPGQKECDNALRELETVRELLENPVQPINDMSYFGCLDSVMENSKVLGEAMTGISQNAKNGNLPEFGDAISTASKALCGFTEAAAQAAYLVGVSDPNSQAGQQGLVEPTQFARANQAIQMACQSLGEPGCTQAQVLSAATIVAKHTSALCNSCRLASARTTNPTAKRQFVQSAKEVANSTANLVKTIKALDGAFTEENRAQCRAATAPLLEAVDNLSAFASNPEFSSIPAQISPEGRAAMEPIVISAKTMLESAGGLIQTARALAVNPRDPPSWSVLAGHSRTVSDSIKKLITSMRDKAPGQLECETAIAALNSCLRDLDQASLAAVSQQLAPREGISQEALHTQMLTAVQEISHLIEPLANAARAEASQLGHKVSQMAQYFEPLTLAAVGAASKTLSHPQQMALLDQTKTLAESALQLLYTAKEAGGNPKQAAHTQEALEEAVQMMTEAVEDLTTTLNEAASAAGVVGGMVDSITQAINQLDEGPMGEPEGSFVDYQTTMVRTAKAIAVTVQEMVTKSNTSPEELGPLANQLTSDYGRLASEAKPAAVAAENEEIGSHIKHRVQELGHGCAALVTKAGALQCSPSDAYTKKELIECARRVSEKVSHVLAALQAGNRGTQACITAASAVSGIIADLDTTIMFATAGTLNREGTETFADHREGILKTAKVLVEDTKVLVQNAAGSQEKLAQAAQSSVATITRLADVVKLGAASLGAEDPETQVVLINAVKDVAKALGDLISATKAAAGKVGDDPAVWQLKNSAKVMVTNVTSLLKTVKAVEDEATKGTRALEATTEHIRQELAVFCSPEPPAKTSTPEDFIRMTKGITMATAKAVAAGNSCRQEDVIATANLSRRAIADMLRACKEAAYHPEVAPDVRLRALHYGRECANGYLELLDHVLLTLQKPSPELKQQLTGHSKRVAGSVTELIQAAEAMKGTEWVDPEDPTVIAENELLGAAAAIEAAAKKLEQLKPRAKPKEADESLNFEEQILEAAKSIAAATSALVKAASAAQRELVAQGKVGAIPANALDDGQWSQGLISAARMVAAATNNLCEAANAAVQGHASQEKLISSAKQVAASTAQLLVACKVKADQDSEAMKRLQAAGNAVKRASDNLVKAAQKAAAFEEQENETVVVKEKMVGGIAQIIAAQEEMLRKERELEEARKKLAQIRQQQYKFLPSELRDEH
UniProt O75663: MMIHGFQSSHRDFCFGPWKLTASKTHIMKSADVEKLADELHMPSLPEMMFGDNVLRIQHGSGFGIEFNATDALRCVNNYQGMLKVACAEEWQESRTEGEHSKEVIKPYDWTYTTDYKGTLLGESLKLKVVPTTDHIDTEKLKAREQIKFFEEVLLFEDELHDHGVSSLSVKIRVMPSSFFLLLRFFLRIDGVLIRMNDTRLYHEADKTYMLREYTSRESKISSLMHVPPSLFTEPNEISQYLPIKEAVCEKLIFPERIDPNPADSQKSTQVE
UniProt Q13769: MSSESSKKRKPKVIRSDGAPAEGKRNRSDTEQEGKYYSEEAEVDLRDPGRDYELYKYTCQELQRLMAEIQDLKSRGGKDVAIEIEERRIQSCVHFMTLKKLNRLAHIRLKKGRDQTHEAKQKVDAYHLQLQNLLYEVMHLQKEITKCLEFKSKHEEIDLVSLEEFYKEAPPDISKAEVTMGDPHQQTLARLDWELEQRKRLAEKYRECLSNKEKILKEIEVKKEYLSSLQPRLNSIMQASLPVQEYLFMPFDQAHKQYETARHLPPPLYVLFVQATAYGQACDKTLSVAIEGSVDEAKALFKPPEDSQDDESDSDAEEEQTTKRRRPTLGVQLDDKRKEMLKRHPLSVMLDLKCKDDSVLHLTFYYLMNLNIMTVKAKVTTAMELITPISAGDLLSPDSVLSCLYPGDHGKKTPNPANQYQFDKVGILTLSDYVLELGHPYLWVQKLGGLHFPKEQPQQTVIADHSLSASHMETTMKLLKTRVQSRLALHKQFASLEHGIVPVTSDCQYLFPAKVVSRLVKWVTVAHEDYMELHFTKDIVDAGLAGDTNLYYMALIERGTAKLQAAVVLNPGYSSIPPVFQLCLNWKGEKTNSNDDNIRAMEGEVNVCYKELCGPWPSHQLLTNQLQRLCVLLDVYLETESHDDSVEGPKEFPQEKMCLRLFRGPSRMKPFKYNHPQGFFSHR
UniProt Q9NUW8, whole entry, looked up: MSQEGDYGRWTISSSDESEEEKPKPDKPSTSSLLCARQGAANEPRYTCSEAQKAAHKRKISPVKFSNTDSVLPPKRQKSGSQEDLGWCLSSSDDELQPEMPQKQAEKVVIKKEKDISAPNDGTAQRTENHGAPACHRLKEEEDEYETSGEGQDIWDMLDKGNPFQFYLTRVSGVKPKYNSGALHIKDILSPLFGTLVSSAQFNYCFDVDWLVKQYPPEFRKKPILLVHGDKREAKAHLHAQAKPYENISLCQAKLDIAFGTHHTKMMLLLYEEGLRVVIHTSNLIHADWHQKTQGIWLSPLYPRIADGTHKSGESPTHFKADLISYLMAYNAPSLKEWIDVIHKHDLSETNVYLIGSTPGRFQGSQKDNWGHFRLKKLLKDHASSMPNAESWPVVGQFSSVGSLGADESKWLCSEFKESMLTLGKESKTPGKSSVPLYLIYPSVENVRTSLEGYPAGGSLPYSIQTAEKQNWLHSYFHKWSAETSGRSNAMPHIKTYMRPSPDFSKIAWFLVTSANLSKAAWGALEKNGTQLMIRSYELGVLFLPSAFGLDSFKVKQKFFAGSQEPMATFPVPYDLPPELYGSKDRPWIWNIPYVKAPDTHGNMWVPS
UniProt P62072: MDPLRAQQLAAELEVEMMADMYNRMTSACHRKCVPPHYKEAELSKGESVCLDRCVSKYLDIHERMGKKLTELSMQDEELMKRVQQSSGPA
UniProt Q8NHU6: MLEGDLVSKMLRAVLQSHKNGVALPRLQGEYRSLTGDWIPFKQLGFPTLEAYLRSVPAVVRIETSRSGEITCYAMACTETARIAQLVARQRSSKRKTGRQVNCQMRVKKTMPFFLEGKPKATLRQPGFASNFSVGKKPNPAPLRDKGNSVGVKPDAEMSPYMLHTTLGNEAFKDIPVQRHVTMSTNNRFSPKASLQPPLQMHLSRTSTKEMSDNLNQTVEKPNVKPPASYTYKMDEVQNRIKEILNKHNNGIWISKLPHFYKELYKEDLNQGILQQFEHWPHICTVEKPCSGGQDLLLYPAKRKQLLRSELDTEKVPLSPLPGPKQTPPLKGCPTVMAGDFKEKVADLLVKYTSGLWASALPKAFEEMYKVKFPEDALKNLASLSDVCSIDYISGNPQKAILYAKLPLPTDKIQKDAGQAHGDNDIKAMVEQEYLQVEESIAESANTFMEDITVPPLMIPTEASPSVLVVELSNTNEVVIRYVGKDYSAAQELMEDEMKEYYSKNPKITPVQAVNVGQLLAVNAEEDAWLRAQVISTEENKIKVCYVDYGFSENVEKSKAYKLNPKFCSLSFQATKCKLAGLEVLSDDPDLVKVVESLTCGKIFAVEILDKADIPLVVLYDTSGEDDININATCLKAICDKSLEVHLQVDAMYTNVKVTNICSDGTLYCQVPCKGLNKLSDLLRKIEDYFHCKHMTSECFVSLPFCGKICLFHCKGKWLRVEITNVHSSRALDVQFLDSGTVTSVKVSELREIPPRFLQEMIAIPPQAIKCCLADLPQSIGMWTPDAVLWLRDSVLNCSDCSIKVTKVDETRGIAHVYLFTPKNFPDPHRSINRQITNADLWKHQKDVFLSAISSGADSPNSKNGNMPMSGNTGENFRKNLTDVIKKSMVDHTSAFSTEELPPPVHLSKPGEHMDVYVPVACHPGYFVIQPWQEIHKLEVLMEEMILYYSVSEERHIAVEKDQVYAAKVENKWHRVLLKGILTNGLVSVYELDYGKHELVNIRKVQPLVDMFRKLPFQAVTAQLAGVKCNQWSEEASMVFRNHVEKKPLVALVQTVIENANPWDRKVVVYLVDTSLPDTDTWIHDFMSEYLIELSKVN
UniProt Q9BSF4: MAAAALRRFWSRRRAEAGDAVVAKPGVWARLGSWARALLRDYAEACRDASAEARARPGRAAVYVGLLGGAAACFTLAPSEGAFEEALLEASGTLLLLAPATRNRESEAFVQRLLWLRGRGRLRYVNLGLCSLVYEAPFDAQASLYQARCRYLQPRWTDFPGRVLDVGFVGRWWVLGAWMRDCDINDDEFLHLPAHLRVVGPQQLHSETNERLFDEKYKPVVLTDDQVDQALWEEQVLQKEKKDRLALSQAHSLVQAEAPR
UniProt Q9Y5J7: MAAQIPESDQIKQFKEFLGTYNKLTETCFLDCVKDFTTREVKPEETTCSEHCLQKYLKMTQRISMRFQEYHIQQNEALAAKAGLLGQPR
UniProt Q9Y5J9: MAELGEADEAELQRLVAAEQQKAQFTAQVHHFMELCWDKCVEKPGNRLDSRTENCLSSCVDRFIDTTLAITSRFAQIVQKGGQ

Compound: Cc1cc(ccc1-c1ccccc1)C(=O)N1CCCN(CC1)C(=O)CCl [compound 10]
Test: probe-labelled cysteine peptide fold change vs DMSO (competition) (log2 fold change); higher = less target engagement (more negative = stronger competition)
Details: THP-1, incubation time: 4 h
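Note: competitive profiling in live THP-1 cells: cysteine peptides tagged with an iodoacetamide desthiobiotin (IA-DTB) probe, intensity after compound treatment relative to DMSO-treated cells.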

Target | probe-labelled cysteine peptide fold change (10 µM) | probe-labelled cysteine peptide fold change (50 µM)
TKT_P29401_41+42_ISSIQATTAAGSGHPTSCCSAAEIMAVLFFHTMR (UniProt P29401) | -0.351 | -0.614
THOC2_Q8NI27_853_YITSCEMVMAPVHEAVVSLHVSK (UniProt Q8NI27) | -0.0135 | 0.0424
TGFBI_Q15582_49_QHGPNVCAVQK (UniProt Q15582) | -0.523 | -0.687
THOC1_Q96FV9_156_SQNTVFCGR (UniProt Q96FV9) | -0.364 | 0.123
TLN1_Q9Y490_1661_DKAPGQLECETAIAALNSCLR (UniProt Q9Y490) | -0.0165 | -0.397
TIPRL_O75663_75_CVNNYQGMLK (UniProt O75663) | -0.0238 | 0.0281
TGFBRAP1_Q8WUH2_700_ALHILVHELQDFAAAEDYCLWCSEGRDPPHR (UniProt Q8WUH2) | 0.128 | 0.353
THOC5_Q13769_507_QFASLEHGIVPVTSDCQYLFPAK (UniProt Q13769) | -0.142 | -0.011
THOC3_Q96J01_65_VHSVAWSCDGRR (UniProt Q96J01) | 0.00382 | -0.116
TEP1_Q99973_171_GLDLSTCPIALK (UniProt Q99973) | -0.11 | -0.948
TFRC_P02786_363_TDSTCR (UniProt P02786) | -0.171 | -0.13
TDP1_Q9NUW8_413_WLCSEFK (UniProt Q9NUW8) | -0.13 | -0.206
TDP1_Q9NUW8_135_TENHGAPACHR (UniProt Q9NUW8) | -0.175 | -0.466
TDRKH_Q9Y2W6_109_VLLISGFPVQVCK (UniProt Q9Y2W6) | -0.429 | -0.927
TLK2_Q86UE8_737_IDVQQLACDPYLLPHIR (UniProt Q86UE8) | 0.018 | 0.143
THOC1_Q96FV9_604_QIECDSEDMK (UniProt Q96FV9) | 0.077 | -0.118
TIMM10_P62072_29_MTSACHR (UniProt P62072) | 0.144 | 0.268

Target | probe-labelled cysteine peptide fold change (10 µM) | probe-labelled cysteine peptide fold change (50 µM)
TLN1_Q9Y490_1045_AQEACGPLEMDSALSVVQNLEK (UniProt Q9Y490) | 0.325 | 0.22
TIA1_P31483_49_MIMDTAGNDPYCFVEFHEHR (UniProt P31483) | 0.11 | 0.0754
TLN1_Q9Y490_1661_APGQLECETAIAALNSCLR (UniProt Q9Y490) | 0.132 | 0.138
TEX2_Q8IWB9_1030_KIEEVSNTPLLLTVEVQECR (UniProt Q8IWB9) | -0.04 | 0.335
TDRD7_Q8NHU6_568_FCSLSFQATK (UniProt Q8NHU6) | 0.191 | 0.232
TIAL1_Q01085_205+209_NCTVYCGGIASGLTDQLMR (UniProt Q01085) | -0.188 | -0.414
TGS1_Q96RS0_28_ILCLCSR (UniProt Q96RS0) | 0.127 | 0.301
TK1_P04183_156_LTAVCMECFR (UniProt P04183) | 0.15 | 0.139
TIMM29_Q9BSF4_46_DYAEACR (UniProt Q9BSF4) | -0.24 | -0.0837
TIMM9_Q9Y5J7_52_EVKPEETTCSEHCLQK (UniProt Q9Y5J7) | -0.00139 | 0.164
TET3_O43151_1381_GKPWSPCK (UniProt O43151) | -0.379 | -1.3
TFIP11_Q9UBB9_383_VLEMVEECER (UniProt Q9UBB9) | 0.13 | 0.19
THOP1_P52888_231_CHVPETR (UniProt P52888) | -0.0874 | -0.0527
TEP1_Q99973_1468_SWEEAVAAGNSGDPYPMGPFACLVQSLR (UniProt Q99973) | -0.31 | -0.27
THOC6_Q86W42_173_GHTDYIHCLALR (UniProt Q86W42) | 0.354 | 0.198
TIMM8B_Q9Y5J9_59_TENCLSSCVDR (UniProt Q9Y5J9) | -0.228 | -0.0725

Taken from the results shown (two entries):
Target | probe-labelled cysteine peptide fold change (10 µM) | probe-labelled cysteine peptide fold change (50 µM)
THOC1_Q96FV9_604_QIECDSEDMK (UniProt Q96FV9) | 0.077 | -0.118
TIMM10_P62072_29_MTSACHR (UniProt P62072) | 0.144 | 0.268
